# Data from PubChem BioAssay AID485298 (National Center for Advancing Translational Sciences (NCATS), 2010).
# Among all 320,000 compounds or so, about 740 (0.23%) were called active. The inconclusive results got no clear call from the source; some entries with a clear call stand among them for comparison. Calls follow the shape of the dose curve; as a rule, active = well fitted activation curve with a large enough effect; inconclusive = small, poorly fitted or top-dose-only effect; inactive = no such curve, though single readings can be large or run the other way. Potencies of inconclusive entries are doubtful fits and often do not repeat.
# Assay: qHTS Assay for Small Molecule Inhibitors of Mitochondrial Division or Activators of Mitochondrial Fusion; also: nearly all actives have a fitted effect of over 45% in size;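 as to growth rescue (activation): temperature-sensitive fusion mutants such as fzo1-1 at 37 °C on non-fermentable ethanol glycerol medium; % of control where 0% means no effect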
# Conditions: S. cerevisiae fusion-defective mutant growth rescue, CellTiterGlo 48 h; growth rescue (activation): at 46.1 µM (top of the series) unless noted
# Outline: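 Luminescent cell viability in 1536-well qHTS format served as the measure of rescued growth in ts fusion-mutant S. cerevisiae cultured on non-fermentable YPEG for 48 hours at 37C.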
# Potency is read from the fitted curve at half-maximal effect.
Structure (SMILES),Potency,growth rescue (activation)
O=C(NC1CCCCC1)C(c1cc2c(cc1[N+](=O)[O-])OCO2)N1CCCCC1 (centres undefined),"inconclusive: 12.6 µM [activator, partial curve]",–
Cc1ccc(CSCCNC(=O)c2cccc([N+](=O)[O-])c2)cc1,"inconclusive: 14.1 µM [activator, partial curve]",–
Cc1cccc(NC(=S)NNC(=O)COc2ccc(Cl)cc2Cl)c1,active: 22.4 µM,–
CCn1ncc(Br)c1C(=O)Nc1sc2c(c1C(N)=O)CCC2,active: 20 µM,–
Cc1ccc(C)c(C(=O)N(Cc2nc(-c3ccc(Cl)cc3)no2)C(C)C)c1,"inconclusive: 15.8 µM [activator, single point]",–
CC(C)(C(=O)O)n1cncn1,"inconclusive: 31.6 µM [activator, single point]",–
CC(=O)c1cc2c(cc1N/C(=N/S(=O)(=O)c1ccc(C)cc1)c1ccccc1)OCO2,"inconclusive: 6.31 µM [activator, full curve, poor fit]",–
C#Cc1ccc([C@@H]2C=C(C(=O)Nc3ccccc3)O[C@H](OCC)[C@H]2CCCO)cc1,"inconclusive: 17.8 µM [activator, single point]",–
CSc1ccc(C(=O)/C=C/c2ccc(N)cc2)cc1,"inconclusive: 11.2 µM [activator, partial curve]",–
O=C(NCc1ccccn1)c1cn(-c2ccccc2)nc1-c1ccc(Cl)cc1,"inconclusive: 17.8 µM [activator, partial curve]",–
CCc1cccc(CC)c1NC(=O)CN1CCc2cc(OC)c(OC)cc2C1,"inconclusive: 35.5 µM [activator, single point]",–
CCN(CC)C(=O)n1c(Cc2ccccc2)nc2ccccc21,–,inactive: -11.1%
O=C(CCl)N1c2ccccc2OCC1c1ccccc1 (centres undefined),–,inactive: -1.19%
CC(C)Cn1c(-c2ccco2)nc2c(c(=O)c3ccccc3n2C)c1=O,"inconclusive: 11.2 µM [activator, partial curve]",–
Cc1onc(-c2ccccc2Cl)c1C(=O)Nc1cccc2cccnc12,"inconclusive: 12.6 µM [activator, partial curve]",–
Cc1cc(C)nc(N(C#N)Cc2ccc(Br)cc2)n1,"inconclusive: 14.1 µM [activator, single point]",–
CCOC(=O)c1c(NC(=O)c2ccncc2)sc(C)c1C,–,inactive: 5.68%
Cc1cccc(N2CCN(C(=O)c3ccc(CS(=O)Cc4cccc(Cl)c4)o3)CC2)c1C (centres undefined),"inconclusive: 17.8 µM [activator, single point]",–
CC(C)(C)c1ccc(NC(=O)C2CCCN(c3cnccn3)C2)cc1 (centres undefined),active: 12.6 µM,–
Cc1ccc(C(=O)Nn2cnc3scc(-c4cccs4)c3c2=O)c(O)c1,"inconclusive: 22.4 µM [activator, partial curve]",–
O=Cc1c[nH]c2cccc(OCc3ccccc3)c12,"inconclusive: 22.4 µM [activator, single point]",–
Cc1ccc(C)c(S(=O)(=O)N2CCN(C(=O)c3ccccc3Cc3ccccc3)CC2)c1,"inconclusive: 25.1 µM [activator, single point]",–

# Record cards, as listed above:
# CCN(CC)C(=O)n1c(Cc2ccccc2)nc2ccccc21 reads growth rescue (activation): inactive: -11.1%
# O=Cc1c[nH]c2cccc(OCc3ccccc3)c12 reads Potency: inconclusive: 22.4 µM [activator, single point]
# O=C(NC1CCCCC1)C(c1cc2c(cc1[N+](=O)[O-])OCO2)N1CCCCC1 (centres undefined) reads Potency: inconclusive: 12.6 µM [activator, partial curve]
# C#Cc1ccc([C@@H]2C=C(C(=O)Nc3ccccc3)O[C@H](OCC)[C@H]2CCCO)cc1 reads Potency: inconclusive: 17.8 µM [activator, single point]

# The listing continues:

Structure (SMILES),Potency,growth rescue (activation)
O=C(Nc1ccc(N2CCOCC2)cc1)c1cc2c(s1)CCCCC2,–,inactive: -0.598%
O=C(O)c1ccc(C[n+]2c(-c3ccccc3)csc2Nc2ccccc2)cc1,"inconclusive: 11.2 µM [activator, partial curve]",–
COc1cccc(Nc2ncccc2C(=O)Nc2ccccc2)c1,"inconclusive: 17.8 µM [activator, partial curve]",–
COc1ccc(Cl)cc1S(=O)(=O)n1cnc2ccccc21,"inconclusive: 6.31 µM [activator, full curve]",–
CCNC(=O)c1ccccc1SCc1ccccc1,–,inactive: -0.454%
O=C(O)CCCCCN1C(=O)/C(=C/c2ccncc2)SC1=S,–,inactive: 1.72%
O=C(N/N=C/c1cn(-c2cccs2)nc1-c1ccccc1)c1ccccc1Br,"inconclusive: 11.2 µM [activator, partial curve]",–
O=C(COC(=O)c1ccc(O)cc1O)N=c1sccn1Cc1ccccc1Cl,"inconclusive: 35.5 µM [activator, single point]",–
CCOC(=O)c1c(NC(=O)C2CCCO2)sc(C(N)=O)c1C (centres undefined),–,inactive: 0.291%
O=C(c1ccc(CS(=O)Cc2ccc(Cl)cc2)o1)N1CCN(c2ccccc2F)CC1 (centres undefined),"inconclusive: 14.1 µM [activator, single point]",–
Cc1ccc(Cl)cc1N1CCN(S(=O)(=O)c2ccc3[nH]c(=O)ccc3c2)CC1,–,inactive: 4.85%
CCOC(=O)C1CCCN(S(=O)(=O)c2ccc(OC)c3ccccc23)C1 (centres undefined),"inconclusive: 28.2 µM [activator, partial curve]",–
CC(=O)NC(C)c1cc(Cl)c2cccnc2c1O (centres undefined),"inconclusive: 20 µM [activator, single point]",–
CC(C)Oc1ccc(S(=O)(=O)N2CCOCC2)cc1NC(=O)C1COc2ccccc2O1 (centres undefined),"inconclusive: 14.1 µM [activator, single point]",–
N#Cc1cc2c(nc1SCc1ccc(Cl)nc1)CCCCC2,"inconclusive: 15.8 µM [activator, single point]",–
O=C(N/N=C/c1ccc(F)cc1)c1cc(-c2ccco2)nc2ccccc12,–,inactive: -7.67%
CC1CCCCN1C(=O)C1CCN(c2nc(-c3ccccc3)nc3c2CCC3)CC1 (centres undefined),"inconclusive: 2.51 µM [activator, full curve, poor fit]",–
O=C(CSc1nnc(CCc2ccccc2)n1-c1ccc(Cl)cc1)c1ccccc1,"inconclusive: 35.5 µM [activator, single point]",–
COC(=O)C1=C(C)NC(=S)NC1c1ccc(-c2cccc(Cl)c2)o1 (centres undefined),"inconclusive: 31.6 µM [activator, single point]",–
CCCCSc1nc(C)nc2c1c(=O)n(C)c(=O)n2C,"inconclusive: 22.4 µM [activator, single point]",–
CCNc1nc(NC(C)C)nc(N(C#N)CCOc2ccc(Cl)cc2Cl)n1,"inconclusive: 31.6 µM [activator, single point]",–
Cc1ccc(S(=O)(=O)Nc2ccc(C(=O)N3CCN(c4ccccc4O)CC3)cc2)cc1[N+](=O)[O-],"inconclusive: 3.55 µM [activator, partial curve]",–
